Source: article PMC3081313, “Factors Defining the Functional Oligomeric State of Escherichia coli DegP Protease” (PLoS ONE, 2011)
Results are given in words; binding and its absence hold for the method and conditions named. Some results given as binding are weak or reduced against the parent protein; the word gives no strength.

T1: proteolytically inactive DegP_(S210A) (Escherichia coli, UniProt P0C0V0 27-474, S210A)
T1 construct: Escherichia coli DegP (HtrA, protease Do), periplasmic protease and chaperone, with the active-site change S210A; Number of copies depends on the sample: hexamer alone, 12-mer or 24-mer with substrate; also called HtrA_(S210A); DegP6
T1 sequence (looked up): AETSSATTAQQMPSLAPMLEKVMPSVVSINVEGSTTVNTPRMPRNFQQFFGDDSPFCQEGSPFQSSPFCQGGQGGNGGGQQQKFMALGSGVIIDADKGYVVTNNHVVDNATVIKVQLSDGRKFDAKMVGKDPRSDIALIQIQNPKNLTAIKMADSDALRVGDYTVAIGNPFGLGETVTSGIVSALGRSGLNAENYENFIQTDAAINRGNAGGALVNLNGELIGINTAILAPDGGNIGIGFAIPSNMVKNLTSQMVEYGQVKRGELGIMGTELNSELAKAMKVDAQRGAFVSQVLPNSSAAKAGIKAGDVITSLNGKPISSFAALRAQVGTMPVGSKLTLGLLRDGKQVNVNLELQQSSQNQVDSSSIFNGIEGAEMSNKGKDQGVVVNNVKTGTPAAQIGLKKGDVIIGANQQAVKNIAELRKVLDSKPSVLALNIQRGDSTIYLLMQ


Tests used:
[1] = biological target: T1, proteolytically inactive DegP_(S210A); assay: SEC; DegP_(S210A) mixed with full-length MDH, 37°C 10 min; Superdex 200 in 50 mM HEPES pH 7.3, 150 mM NaCl at 4°C; both purified
[2] = biological target: T1, proteolytically inactive DegP_(S210A); assay: SEC; DegP_(S210A) (42 µM) mixed with full-length β-casein (42 µM; also in molar excess), 37°C 10 min in 50 mM HEPES pH 7.3; Superdex 200 in 50 mM HEPES pH 7.3, 150 mM NaCl at 4°C; peak fractions on SDS-PAGE; both purified

| binding [1] | binding [2] | Binder |
| --- | --- | --- |
| binds weakly | – | full-length malate dehydrogenase (MDH) (enzyme, UniProt P00346 25-338) AKVAVLGASGGIGQPLSLLLKNSPLVSRLTLYDIAHTPGVAADLSHIETRATVKGYLGPEQLPDCLKGCDVVVIPAGVPRKPGMTRDDLFNTNATIVATLTAACAQHCPDAMICIISNPVNSTIPITAEVFKKHGVYNPNKIFGVTTLDIVRANAFVAELKGLDPARVSVPVIGGHAGKTIIPLISQCTPKVDFPQDQLSTLTGRIQEAGTEVVKAKAGAGSATLSMAYAGARFVFSLVDAMNGKEGVVECSFVKSQETDCPYFSTPLLLGKKGIEKNLGIGKISPFEEKMIAEAIPELKASIKKGEEFVKNMK |
| – | binds | full-length β-casein (protein, UniProt P02666 16-224) RELEELNVPGEIVESLSSSEESITRINKKIEKFQSEEQQQTEDELQDKIHPFAQTQSLVYPFPGPIPNSLPQNIPPLTQTPVVVPPFLQPEVMGVSKVKEAMAPKHKEMPFPKYPVEPFTESQSLTLTDVENLHLPLPLLQSWMHQPHQPLPPTVMFPPQSVLSLSQSKVLPVPQKAVPYPQRDMPIQAFLLYQEPVLGPVRGPFPIIV |
